Results on 24 sequences are retold here after the supplement of paper PMC10338343.

± gives the standard deviation. The list shows a part of the results. Many entries were measured with a wide error.

The test system of this assay is EfPiwi piRISC loaded with L1MC piRNA (26 nt). The assay is described as follows: pre-steady-state target cleavage rate (min^-1); guide: L1MC piRNA 5'p-UAACUAAAUACUAUGCAAGCUGUAGG; MIWI and MILI are mouse PIWI proteins and EfPiwi is from a freshwater sponge; tags in brackets are library labels; higher = faster piRNA-guided slicing of the target. The settings on record: auxiliary factor: 500 nM Ephydatia muelleri Gtsf1. In outline:
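Three pooled Cleave-'n-Seq trials supplied the data, with k3 capped at 0.0001 min^-1. In each, […] transcribed, DNA-blocked target RNA library and 1 nM active affinity-purified piRISC with one synthetic guide reacted in HEPES–potassium acetate buffer at 33 °C for 0–8 or 0–960 min, with or without 500 nM GTSF1 partner protein. Uncleaved targets were sequenced and normalised to depth and to weakly complementary targets. A burst-and-steady-state fit provided the pre-steady-state cleavage rate.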
In the case of UCCUCCUACAAGCUUGCAUAGUAUUUAGUUA, the “pre-steady-state target cleavage rate” value was 0.0104 ± 0.0039.

For UCCUGGUACAGCUUGCAUUGUUUUUAGUUA, the “pre-steady-state target cleavage rate” value turned out to be 0.000697 ± 0.0086.

UCCUGGAACACCUUGCAUUGUAUUUAGUUA: the “pre-steady-state target cleavage rate” value is 0.00411 ± 0.0026.

Take UCCUGGUAACAGCUUGCAUAGUAUUUAGUUA: the “pre-steady-state target cleavage rate” value was found to be 0.0495 ± 0.011.

As to “UCCUGGAUGUGCUUGCAUAGUAUUUAGUUU [g2:g20:cont:t1U]”, the “pre-steady-state target cleavage rate” value worked out at 0.052 ± 0.017.

Take UCCUGGAUGUCGAACGAUAGUAUUAUAGUUA: the “pre-steady-state target cleavage rate” value is < 0.0001.

For the sequence UCCUGGAUGAGGUUGCAUAGUAUUUAGUAA, the “pre-steady-state target cleavage rate” value was 0.00223 ± 0.004.

UCCUCCUUCAGCUUGCAUACUAUUUAGUUA: the “pre-steady-state target cleavage rate” value was 0.00784 ± 0.0025.

On to UCCUCCUACUGCUUGCAUUGUAUUUAGUUA, for which the “pre-steady-state target cleavage rate” value is 0.0605 ± 0.016.

As to UCCUGGAUGUCGAACGUAAGGAUUUAGUUA, the “pre-steady-state target cleavage rate” value was < 0.0001.

With UCCUCCAUACAGCUUGCAUAGUAUUUAGUUA, the “pre-steady-state target cleavage rate” value came out at 0.00733 ± 0.0027.

For the sequence UCCUGGAUCAGAUUGCAUAGUAUUUAGUUA, the “pre-steady-state target cleavage rate” value amounted to 0.0613 ± 0.011.

With UCCUGGAACAGCUUUCAUAGUAUUUAGUUA, the “pre-steady-state target cleavage rate” value was determined as 0.00631 ± 0.0025.

For UCCUCCUACAGCAUGCAUAGUAUUAAGUUA, the “pre-steady-state target cleavage rate” value came to 0.00654 ± 0.0033.

In the case of UCCUGGAUCAGCUUGCAUAGUUAUUUAGUUA, the “pre-steady-state target cleavage rate” value came to 0.00183 ± 0.005.

Regarding UCCUGGUACACCUUGCAUUGUAUUUAGUUA, the “pre-steady-state target cleavage rate” value worked out at 0.00103 ± 0.0076.

UCCUGGAUCAGCUUGCAUUGUAUUAAGUUA: the “pre-steady-state target cleavage rate” value was 0.00314 ± 0.0017.

In the case of UCCUGGUACAGGUUGCAUAGUUUUUAGUUA, the “pre-steady-state target cleavage rate” value is 0.00104 ± 0.016.

As for UCCUGGAUGUGCUUGGUUAGUAUUUAGUUA, the “pre-steady-state target cleavage rate” value stood at 0.000359 ± 0.018.

Consider UCCUGGAUGUCCUUGCAUAGUAUCUAGUUA, for which the “pre-steady-state target cleavage rate” value was 0.00775 ± 0.0043.

With UCCUGCUACAGCUUGCAAGUAUUUAGUUA, the “pre-steady-state target cleavage rate” value was 0.00614 ± 0.0027.

Regarding UCCUCCUACAGCAUGCUUAGUAUUUAGUUA, the “pre-steady-state target cleavage rate” value was 0.0116 ± 0.0032.

With UCCUGGAACAGCAUUGCAUAGUAUUUAGUUA, the “pre-steady-state target cleavage rate” value worked out at 0.015 ± 0.0044.

As for UCCUGGUACAGCGUGCAUAGUAUUUAGUUA, the “pre-steady-state target cleavage rate” value was found to be 0.0121 ± 0.004.
